Some results were stated once for a whole list of compounds, not compound by compound.
System: Nippostrongylus brasiliensis
Assay: Nippostrongylus brasiliensis test (NIPOBR), in vitro efficacy, acetylcholine esterase readout
Conditions: 10 μg/ml; adult worms

Row | SMILES | activity (reduction of AChE compared to negative control) [%]
1 | O=C(NCC(F)(F)c1ccc(Cl)cc1Cl)c1ccccc1C(F)(F)F [Example 1-1, N-[2-(2,4-dichlorophenyl)-2,2-difluoroethyl]-2-(trifluoromethyl)benzamide] | ≥ 60
2 | CC(F)(CNC(=O)c1ccccc1C(F)(F)F)c1ccc(Cl)cc1Cl (centres unmarked) [Example 1-393, N-[2-(2,4-dichlorophenyl)-2-fluoropropyl]-2-(trifluoromethyl)benzamide] | ≥ 60
